# PubChem BioAssay AID1508588 – Peter MacCallum Cancer Centre | 2020
# Test: 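Genome-wide search for knock-downs that heighten vemurafenib action in melanoma cells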 (primary screen)
# System: human WM266.4 melanoma cells (BRAF V600 mutant)
# Reagents: siRNA pool against human genes, 40 nM
# Timing: 96 h from transfection to read-out
# Treatment: vemurafenib 300 nM (about IC25), added 48 h after transfection, for 48 h; comparison arm got DMSO vehicle only
# Read-out: 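Cell gain (DAPI nuclei at end minus before drug, mean of two replicates) and medium lactate by absorbance per cell, both as ratio to non-targeting siRNA, also grouped into fold-change classes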
# Scale: cell gain with vemurafenib: higher = more cell gain than with non-targeting siRNA; lactate per cell with vemurafenib: higher = more lactate made per cell
# Rule for the call: 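Enhancement is called by pairing each knock-down's vehicle-arm and drug-arm fold-change classes for viability or glycolysis; which class combinations qualify is not given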
# Calls: active = enhances vemurafenib effect; inactive = no enhancement seen
# Shown is an unselected part of about 18,000 reagents tested. In the full data, 790 (4.4%) are marked active. 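Calls rest on a combination of fold-change classes in drug and vehicle arms, not all shown here.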
target gene,cell gain with vemurafenib,lactate per cell with vemurafenib,activity call
OR52A4P (olfactory receptor family 52 subfamily A member 4 pseudogene),0.8,0.4,inactive
CAMKK2 (calcium/calmodulin dependent protein kinase kinase 2),0.9,0.56,inactive
GZMB (granzyme B),0.36,1.66,inactive
FAM50B (family with sequence similarity 50 member B),0.53,0.88,inactive
GRID2 (glutamate ionotropic receptor delta type subunit 2),0.56,0.8,inactive
HM13 (histocompatibility minor 13),0.01,0.89,inactive
SLC25A37,0.39,0.73,inactive
TULP4 (TUB like protein 4),0.49,0.76,inactive
TARDBP (TAR DNA binding protein),0.09,1.27,inactive
HMGB3 (high mobility group box 3),0.51,1.12,inactive
ACSL3 (acyl-CoA synthetase long chain family member 3),0.67,0.73,inactive
PELI3 (pellino E3 ubiquitin protein ligase family member 3),0.89,0.54,inactive
CPOX (coproporphyrinogen oxidase),0.6,0.68,inactive
CCNE2 (cyclin E2),0.99,0.9,inactive
PCDH7 (protocadherin 7),0.24,1.53,inactive
STAT5B (signal transducer and activator of transcription 5B),0.39,0.14,active
DRC7 (dynein regulatory complex subunit 7),0.98,0.5,inactive
CAAP1 (caspase activity and apoptosis inhibitor 1),0.46,0.22,inactive
AZI2 (5-azacytidine induced 2),0.87,0.8,inactive
RFPL1 (ret finger protein like 1),0.86,0.8,inactive
CHMP2A (charged multivesicular body protein 2A),-0.15,5.93,inactive
UQCRH (ubiquinol-cytochrome c reductase hinge protein),0.72,0.94,inactive
TMEM204 (transmembrane protein 204),0.56,0.75,inactive
PARG (poly(ADP-ribose) glycohydrolase),0.87,0.8,inactive
RNF168 (ring finger protein 168),1.01,0.84,inactive
COMMD1 (copper metabolism domain containing 1),0.54,0.8,inactive
CRELD1 (CRELD disulfide isomerase 1),0.64,0.73,inactive
ORMDL3 (ORMDL sphingolipid biosynthesis regulator 3),0.26,1.36,inactive
USP34 (ubiquitin specific peptidase 34),1.07,0.76,inactive
BDP1 (BDP1 general transcription factor IIIB subunit),0.44,0.7,inactive
PPIP5K2 (diphosphoinositol pentakisphosphate kinase 2),0.71,0.29,inactive
GNAZ (G protein subunit alpha z),0.36,1.01,inactive
"TSFM (Ts translation elongation factor, mitochondrial)",0.75,0.84,inactive
PWWP2B (PWWP domain containing 2B),0.61,1.42,inactive
MOB1A (MOB kinase activator 1A),0.21,0.78,inactive
ACP3 (acid phosphatase 3),0.69,0.8,inactive
TMEM106B (transmembrane protein 106B),0.53,1.71,inactive
STK4 (serine/threonine kinase 4),0.84,0.83,inactive
CLEC12B (C-type lectin domain family 12 member B),0.3,0.65,inactive
OR10J1 (olfactory receptor family 10 subfamily J member 1),0.94,0.58,inactive
OR4K15 (olfactory receptor family 4 subfamily K member 15),0.11,0.79,active
SPRY3 (sprouty RTK signaling antagonist 3),0.6,1.07,inactive
OR52D1 (olfactory receptor family 52 subfamily D member 1),0.83,0.32,inactive
GRIP2 (glutamate receptor interacting protein 2),-0.09,3.42,inactive
GLDC (glycine decarboxylase),0.46,1.19,inactive
PFAS (phosphoribosylformylglycinamidine synthase),0.69,0.56,inactive
BHLHE40 (basic helix-loop-helix family member e40),0.76,1.21,inactive
MAN1A1 (mannosidase alpha class 1A member 1),0.94,0.6,inactive
ADAM10 (ADAM metallopeptidase domain 10),0.23,1.5,inactive
MRPS26 (mitochondrial ribosomal protein S26),1.07,0.67,inactive
ASB7 (ankyrin repeat and SOCS box containing 7),0.37,1.08,inactive
LOXL3 (lysyl oxidase like 3),0.45,1.25,inactive
RPL39L (ribosomal protein L39 like),0.15,0.72,inactive
VDAC1 (voltage dependent anion channel 1),0.88,0.4,inactive
SETD3,0.38,1.67,inactive
IQSEC2 (IQ motif and Sec7 domain ArfGEF 2),0.93,0.8,inactive
TESMIN (testis expressed metallothionein like protein),1.11,0.52,inactive
S100A8 (S100 calcium binding protein A8),0.35,0.26,inactive
CLDN10 (claudin 10),1.13,0.23,inactive
ACE (angiotensin I converting enzyme),0.98,1.12,inactive
ASPHD2 (aspartate beta-hydroxylase domain containing 2),0.59,0.84,inactive
ATP11B (ATPase phospholipid transporting 11B (putative)),0.62,0.59,inactive
MAPKAPK3 (MAPK activated protein kinase 3),0.85,0.76,inactive
CLPP,0.63,1.13,inactive
MMP21 (matrix metallopeptidase 21),0.72,0.64,inactive
MRPL34 (mitochondrial ribosomal protein L34),0.01,1.94,inactive
ASCL2 (achaete-scute family bHLH transcription factor 2),0.54,0.92,inactive
SLC19A3,1.04,1.21,inactive
OR2T4 (olfactory receptor family 2 subfamily T member 4),0.91,0.5,inactive
CCL11 (C-C motif chemokine ligand 11),1.08,0.99,inactive
IQSEC3 (IQ motif and Sec7 domain ArfGEF 3),0.72,1.32,inactive
PFDN5 (prefoldin subunit 5),0.7,0.68,inactive
MIPOL1 (mirror-image polydactyly 1),0.57,0.72,inactive
CYP11B1 (cytochrome P450 family 11 subfamily B member 1),0.9,0.53,inactive
OR52L1 (olfactory receptor family 52 subfamily L member 1),0.28,2.42,inactive
CDK6 (cyclin dependent kinase 6),0.47,0.77,inactive
IFNAR1 (interferon alpha and beta receptor subunit 1),1.1,0.77,inactive
TRMT2A (tRNA methyltransferase 2A),0.55,0.47,inactive
MLYCD (malonyl-CoA decarboxylase),0.65,1.21,inactive
KRT14 (keratin 14),0.54,0.86,inactive
NCSTN (nicastrin),0.37,1.29,inactive
GSTO2 (glutathione S-transferase omega 2),0.36,0.5,inactive
CREB3L1 (cAMP responsive element binding protein 3 like 1),0.32,0.83,inactive
UBE2H (ubiquitin conjugating enzyme E2 H),0.21,1.66,inactive

Part of the list above, limited to “lactate per cell with vemurafenib”:
SLC25A37 = 0.73
TULP4 (TUB like protein 4) = 0.76
TARDBP (TAR DNA binding protein) = 1.27
HMGB3 (high mobility group box 3) = 1.12
ACSL3 (acyl-CoA synthetase long chain family member 3) = 0.73
PELI3 (pellino E3 ubiquitin protein ligase family member 3) = 0.54
CPOX (coproporphyrinogen oxidase) = 0.68
CCNE2 (cyclin E2) = 0.9
PCDH7 (protocadherin 7) = 1.53
STAT5B (signal transducer and activator of transcription 5B) = 0.14
DRC7 (dynein regulatory complex subunit 7) = 0.5
CAAP1 (caspase activity and apoptosis inhibitor 1) = 0.22
